Data on 108 sequences can be found in PubChem BioAssay AID1347426 (Functional Genomics Laboratory (NCATS/FGL), 2020).

In all, about 31,000 sequences went through this assay and about 1,400 (4.5%) were called active.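 Rule for the calls: active = median seed-adjusted z-score above 1 or below -1; inactive = the rest.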 The list shows a part of the results.

This test can be described thus: Novel Modifiers of Survival Motor Neuron (SMN) Protein: Gene Identification via Genome-wide siRNA Screen.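 Note: luminescence tracks full-length SMN protein made from the SMN2 reporter.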 Conditions: HEK293T SMN2-luciferase reporter, siRNA knockdown, 72 h; actives lie on both sides. The gist of the method: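 HEK293T cells stably expressing an SMN2 splicing/cDNA-luciferase reporter were reverse-transfected with a druggable-genome siRNA library and read by luminescence at 72 hours; hits defined by MAD score above 1.0 or below -1.0.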
For CUCAUAUACCUAUACCUCATT against AMIGO1, the median seed-adjusted z-score was inactive: 0.175. As to GAACUGGGCGAGUAUUACATT against SUPT5H, the median seed-adjusted z-score is active: -4.02. With GAAAAGAAGCUCAAGUGUATT against ZNF410, the median seed-adjusted z-score is inactive: -0.135. On to GCCUCACCCUUAGCCUUUATT against TTLL10, for which the median seed-adjusted z-score is inactive: 0.211.

With CAUUCAACCAGUUAUUACATT against N6AMT1, the median seed-adjusted z-score was inactive: 0.166.

Consider GCCGAGACUGUAGCAGAGATT against HES4, for which the median seed-adjusted z-score was inactive: 0.705. Then GAUCGACUGCUAGAGAGUATT against DCLK1, with inactive: 0.193. For CCAUCGACGGUGUUACCUATT against ITIH3, the median seed-adjusted z-score is inactive: 0. As to GCUUCCACGUGGUCUAUGUTT against TBX1, the median seed-adjusted z-score was inactive: -0.744.

For AGAUCGACGUGAUCAAGCATT against GNAS, the median seed-adjusted z-score was inactive: -0.531. For CCACGAUCGUUCACAAGGATT against KCTD4 the value was inactive: 0.649; for GCACAUAGCUAUCCGCCCATT against GUCY2D, inactive: 0. GGUUCUGCUUUAUUACCUUTT against HNRNPD: the median seed-adjusted z-score is inactive: 0.504.

With GGAAGACUCAAAUACAGUATT against TRIM5, the median seed-adjusted z-score is inactive: 0.0758. As for GAUGUGCAAUUCUUAAAGATT against NAAA, the median seed-adjusted z-score is inactive: -0.137. Then UCAUCGACAGCAAAAAUUATT against SUSD2, with inactive: 0.422; and GAUUCAUACAUACCUCGAATT against MYSM1, with inactive: -0.116. For GCCUGUGACUCAUACUGGATT against ELF5 the value was inactive: -0.45; for GGUUAUAAGCGGGUUAACATT against LTBP1, inactive: 0.143.

With UGCUAUAGCUUGCUAGUAATT against CD28, the median seed-adjusted z-score was inactive: -0.993. Then GGUGGAGACAUUUACAUCUTT against CREB3L1, with inactive: 0.708. Then GCGCUUGGAGCAUCCCUUUTT against NME3, with inactive: -0.0125. Regarding CCAUGCUCCUGCAACAUUATT against AHSA1, the median seed-adjusted z-score is inactive: 0.489. GAUGUUCCCUGAUAGCAAATT against SPRR2B: the median seed-adjusted z-score is inactive: 0.388.

On to GCAUAGUGGGUGACUAUCATT against GOLGB1, for which the median seed-adjusted z-score was inactive: 0.0851. Then GCUAAAGUCCGGUUACAGATT against UCP2, with inactive: -0.111; and GUAUCGUCGAGAAGCCUAUTT against NT5C2, with inactive: -0.687.

Consider GCACCUACACUGACGAAGATT against FARSB, for which the median seed-adjusted z-score was inactive: 0.317. Then GCUGUACUCUACCUAUUUATT against SLC5A11, with inactive: -0.219. Then CCAUAACUGCAGUUUUGAUTT against DMBT1, with inactive: -0.131. For GGGUCUGAAGUGAACAAGATT against RBBP8 the value was inactive: 0.323; for GAGCUGAUCUGCAAGAUCATT against DIRAS3, inactive: -0.419.

For the sequence CAAAGUGAAGAGAUACCUATT against ZNF346, the median seed-adjusted z-score is inactive: 0.00564.

As to CCAGGCUAUUCCUACAACATT against PITX2, the median seed-adjusted z-score is inactive: -0.231. In the case of AGACAAUCGUCAUGCAAUUTT against CDC37, the median seed-adjusted z-score is inactive: 0.

With CGAUUCCAGCAGUAGCUCATT against AP3B2, the median seed-adjusted z-score is active: -2.45. For GGGUUGAAUUUAUUGAGCUTT against GHR the value was inactive: 0.273; for CAAAAUGCAUUAGCUGAAATT against VIP, active: 1.52; for GUAUCUGCAUCAUGCAAAATT against HAS2, inactive: 0.354. As for GAGAGAACAUAAUUCAUUUTT against PADI4, the median seed-adjusted z-score is inactive: 0.417. For GGCGUGGUCUUACGAGAUATT against SLC12A7 the value was inactive: -0.0309; for CAAACGGCUCUAUAAUGAATT against CCNI, inactive: -0.174.

Regarding GAUUGAAGGCGGUGUCUAATT against NEK1, the median seed-adjusted z-score was inactive: 0.296. For ACUUCACAGCUGUUCGUGATT against SLC30A2 the value was inactive: -0.402. In the case of GAAGUACCCAAACUAUAAATT against SOX6, the median seed-adjusted z-score was inactive: 0.0135. With GCCUCUGGCGAUUUGGUGATT against NFKBIL1, the median seed-adjusted z-score is inactive: 0.282.

Turning to CUUUUUCAAUGAAAGAGAATT against SOX1, the median seed-adjusted z-score is inactive: 0.415.

For CAAGGACUGCCCUAAAGUATT against SERAC1, the median seed-adjusted z-score is inactive: -0.0919. As for GAUACUGAGAGAUUUCUUUTT against USP27X, the median seed-adjusted z-score is inactive: 0.43. For GAACAGCACAAGAGUUAUATT against NOS3 the value was inactive: 0.212.

GAGCAGUGAUUAACGAUAUTT against AUH: the median seed-adjusted z-score is inactive: 0. Regarding GGCAAAAAUCGAUAAUGAATT against CYB5R2, the median seed-adjusted z-score is inactive: -0.403. Consider GAGCCCAUCUUAAUCCCGATT against AMBP, for which the median seed-adjusted z-score is inactive: -0.679.

Regarding CGAGUUCUAUCUUGAGAAUTT against TEX13A, the median seed-adjusted z-score is active: -1.22. Then GCCCUUUACAUACUCUUCATT against IL23R, with inactive: 0.512; and GCAUGUAAGAAUCCACAAUTT against ZNF187, with inactive: 0.419. Regarding GAGUUUCAACAAACAGACATT against APOA5, the median seed-adjusted z-score was inactive: -0.791. Consider GACCUAUCGUUGGGUUAUATT against ASRGL1, for which the median seed-adjusted z-score is inactive: 0. With GACUUUCACUUCCGCCUUATT against OAZ3, the median seed-adjusted z-score is inactive: 0.046. Then CAGUGAUGAUUACUACAAATT against PJA1, with inactive: -0.275; and CCCGAGAACCAGUUGUUAATT against CLDN19, with inactive: 0. For GCUCAUAUAUAGAUUCUUATT against ALDH8A1 the value was inactive: 0.0628. With GACACUAGCUUAAACAACUTT against ZFAND5, the median seed-adjusted z-score is inactive: 0.0289. For the sequence CACUUCGCCUGAGAUCAAATT against GIPC2, the median seed-adjusted z-score is inactive: -0.0367.

Regarding GCAGGAGUAUGGGACCAGATT against TARBP2, the median seed-adjusted z-score was inactive: 0.068. For CCUUGUUGCUCAUCGGAGATT against ZNF606 the value was inactive: 0.118. As for GGAUCACAUUGACAGCAAUTT against FOXP2, the median seed-adjusted z-score was inactive: 0.222. As for GAUUGAAAUAUGACGUGAATT against TSN, the median seed-adjusted z-score was inactive: 0.572. For AGAUGAUACUAAUGUGACATT against RAB9B the value was inactive: -0.0301; for CCACCUCAGGCUAUGCUAATT against SP7, inactive: -0.0435; for GCUCUAAGAUGAUCGACAATT against GNAI2, inactive: 0.

Take CCAACUAAAUCUCCAACAATT against RASGRF1: the median seed-adjusted z-score is inactive: 0. Then CUACCAAAGAAAAAGUCAATT against RNASE9, with inactive: 0.188. As for CAACAUUGGAUCCUACAUATT against CDK7, the median seed-adjusted z-score was inactive: -0.524.

As for CAUCCAUUGUGGAGGCUAUTT against IL21R, the median seed-adjusted z-score is inactive: 0.0068. In the case of CCGAGGUGUUCUUUCUCUATT against CHST2, the median seed-adjusted z-score is inactive: 0.

Take CAACAACCCUGAGCGAUUUTT against TRIM58: the median seed-adjusted z-score was inactive: -0.582. Then CUCUGGAAUUAGUCACAGATT against MMAB, with inactive: 0. Turning to GGACUUGGAUUCGAGGAUATT against COL15A1, the median seed-adjusted z-score is inactive: 0.161. For the sequence CCGCUCAACUUGAACAUGATT against HOXD12, the median seed-adjusted z-score is inactive: -0.18.

For the sequence CGAUAUUACUGGUCGUGGATT against ADH7, the median seed-adjusted z-score is inactive: -0.388. With GAUUACUUCUUGACUAUCATT against OCRL, the median seed-adjusted z-score was inactive: -0.545. Then CGGUACUGGAGAACACGGATT against MFI2, with inactive: 0.365; and GCAGAACUGUUGCGGAUUATT against TOPBP1, with inactive: 0.0888. With CGGUUACGACUGGAUGGUATT against SCML2, the median seed-adjusted z-score is inactive: -0.538. Regarding GAACAACAGAAAUAUGAGATT against TTC35, the median seed-adjusted z-score is inactive: -0.0898. Then GAAUAAAGUCUGGAAUGUUTT against TRIM7, with inactive: -0.845. Take GGUACUUCGUGAUCCGCAUTT against NECAP2: the median seed-adjusted z-score was inactive: -0.539. For CGAAGACACUUUCCGGCAATT against ATP6V1F the value was inactive: -0.428; for GAUGCGAUUUGAUGAGAUATT against EPS15L1, inactive: -0.0511; for GGCCUCUACUUGCACAACATT against AMIGO3, inactive: 0.752. Regarding AGGCCCGAGUGCAAAAGUATT against ARX, the median seed-adjusted z-score was inactive: 0.756. With CCGUGCUGACCUCCAAAUATT against HBA1, the median seed-adjusted z-score was active: -1.03. With UCACGGCCAUGAGUCUAGATT against LTB4R, the median seed-adjusted z-score was inactive: 0.498. As for GCCCUACCAUAAUCGUCAATT against TM9SF3, the median seed-adjusted z-score is inactive: -0.267. Take GGAACGACAUGGAGACCAUTT against PTGES: the median seed-adjusted z-score is inactive: -0.0851. Then CACCAACGUGUACAACAAATT against CACNA2D4, with inactive: -0.0464. Regarding UCGUGGAGGUGAUCUAUUATT against RAB6C, the median seed-adjusted z-score is active: -1.08. As for GGAUCUUCAAGCAAGGGUATT against ZNF462, the median seed-adjusted z-score is inactive: 0.0487.

On to AGGAGUUCAUCAUGCUGAUTT against S100A9, for which the median seed-adjusted z-score is inactive: -0.0953.

For the sequence GCAGCAUACAGGAAUACCATT against ATRNL1, the median seed-adjusted z-score is inactive: -0.142.

GCCUCGUGACUUUCGAAGATT against PHF19: the median seed-adjusted z-score was inactive: -0.195. For GACACCUUCUUAGACGAUATT against AMPD1 the value was inactive: 0.378; for GGACUGAGAGGCAAGAGUUTT against HLA-A, inactive: 0.189; for CAUUAUUGCAUGCAUAGAATT against CAPZA2, inactive: 0.

On to CCGUAUCUGUCACAAUAAATT against CST6, for which the median seed-adjusted z-score is inactive: -0.237.

GUCUUCUACCCAACCCUGATT against CHID1: the median seed-adjusted z-score is inactive: 0.199. As for CCUGAUGUCUUAUCUCAGATT against ZNF398, the median seed-adjusted z-score is inactive: 0.119.
